The assay is described as follows: qHTS Assay for Lipid Storage Modulators in Drosophila S3 Cells.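 As to cell number change: cells counted by Cell Tracker Red CMTPX staining in the red channel.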 The note with it: BODIPY lipid droplet fluorescence, 18-24 h; for cell number change: measured here: cell count max response, cells fed with added oleic acid. A digest of the protocol:
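Drosophila S3 cells got compounds at several concentrations plus oleic acid (400 uM solution). Laser-scanning cytometry with 488 nm excitation read lipid droplets at 500-530 nm and cells at 575-640 nm. Percent activity was relative to 20 uM Triacsin C.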
On the technique in general: Quantitative high-throughput screening tests each substance at several concentrations.

[1] abbreviates: measured here: cell number channel AC50, cells fed with added oleic acid.
Where [2] appears, read: measured here: lipid fluorescence (Fed channel) AC50, cells fed with added oleic acid.

This is one part of the list. Shown are side measurements of this screen, not its main read-out; they come without a call. The list favours compounds with an active or inconclusive main result. Words in brackets tell the shape of the fitted curve; partial curves, single points and poor fits give uncertain potencies.

By AC50 is commonly meant the concentration giving half of the maximal activity seen. Read a low AC50 as greater potency.

In the case of `COc1ccc(/C=C2\SC(=S)N(CCC(=O)Nc3cccc(O)c3)C2=O)cc1`, the cell number change was 31.2%. Besides, under setting [1], the AC50 was 32.6 µM [rising, single point].
Turning to `CC(Sc1nnnn1C1CCCC1)C(=O)Nc1cccc(S(=O)(=O)N2CCOCC2)c1` (stereo not drawn), the cell number change was -1.25%. The AC50 under setting [2] was 0.103 µM [rising, full curve, poor fit].
With `CCN(CC)Cc1c(-c2ccccc2)[nH]c2ccc(C)cc2c1=O`, the AC50 under setting [1] is 2.31 µM [rising, partial curve].
In the case of `COC(=O)C(C)Sc1nc2c(c(=O)n(C)c(=O)n2C)n1Cc1cccc(C)c1` (stereo not drawn), the cell number change is -15%. The half-maximal activity concentration (AC50) under setting [2] is 0.058 µM [falling, full curve, poor fit].
Consider `CCN1CCC2(CCN(C(=O)c3cc(COc4cc(C)ccc4C)on3)C2)C1` (stereo not drawn), for which the cell number change is 13.4%. Besides, under setting [2], the AC50 is 29.1 µM [rising, partial curve].
Take `CCCn1c(N)c(C(=O)CSc2nnnn2-c2ccc(O)cc2)c(=O)n(C)c1=O`: the cell number change is 110%. The AC50 under setting [1] is 29.1 µM [rising, single point]. The AC50 under setting [2] is 29.1 µM [rising, single point].
On to `O=S(=O)(NN=C1CCCCCC1)c1ccc(Cl)cc1`, for which the cell number change was found to be 10.9%. For the same molecule, the AC50 under setting [1] was 0.00461 µM [rising, full curve, poor fit].
Consider `Nc1ccc(C(=O)c2cccs2)cc1[N+](=O)[O-]`, for which the cell number change was -5.13%. In addition, the AC50 under setting [1] is 0.00461 µM [falling, full curve, poor fit]. The AC50 under setting [2] was 0.00517 µM [falling, full curve, poor fit].
Regarding `O=C(Nc1ccc(Cl)cc1)N1CCOCC1`, the cell number change turned out to be 16.1%. The AC50 under setting [2] was 0.13 µM [falling, full curve, poor fit].
For the molecule `O=C(c1cccs1)N1CCN=C1SCc1cccnc1`, the cell number change was -0.625%. For the same molecule, the AC50 under setting [2] is 14.6 µM [rising, partial curve, poor fit].
In the case of `CC1CN=C(NC2CCCCC2C)S1` (stereo not drawn), the cell number change is -3.96%. Also, the AC50 under setting [2] was 0.184 µM [falling, full curve, poor fit].
Turning to `COc1ccc(-c2cn3cccnc3n2)cc1NC(=O)C1CCCC1`, the AC50 under setting [1] is 0.231 µM [rising, full curve] and the half-maximal activity concentration (AC50) under setting [2] was 0.116 µM [rising, full curve, poor fit].
As for `COc1ccc(C(CNC(=O)c2cc3ccccc3cc2OC)N2CCCC2)cc1` (stereo not drawn), the cell number change is -2.48%. Moreover, the AC50 under setting [2] is 0.731 µM [rising, full curve].
As for `COC(=O)C1CC(O)CN1S(=O)(=O)c1ccc2ccccc2c1` (stereo not drawn), the cell number change was found to be 1.1%. The AC50 under setting [2] is 0.259 µM [rising, full curve].
Consider `C/C(=N\NC(=O)Cn1cc([N+](=O)[O-])cn1)c1ccco1`, for which the cell number change stood at 22.8%. Under setting [2], the AC50 is 0.517 µM [rising, single point].
For `Cc1ccc(NC(=O)C2CCN(C(=O)c3ccccc3C)CC2)nc1`, the cell number change is -11.4%.
As to `C=CCc1ccccc1OCC(O)Cn1ccnc1C` (stereo not drawn), the cell number change is -2.72%.
Regarding `Cc1noc(C)c1COc1ccc(C(=O)NCCc2ccc(F)cc2)cc1`, the cell number change was -4.29%. The AC50 under setting [1] was 6.51 µM [falling, single point]. Also, the AC50 under setting [2] was 6.51 µM [falling, single point].
Regarding `O=C(Nc1ccc(Cl)cc1)c1cccc(S(=O)(=O)Nc2ccccn2)c1`, the cell number change was 10.3%.
In the case of `CCOc1cc(NC(=O)C2CCCCC2)c(OCC)cc1NC(=O)c1ccco1`, the cell number change is -9.18%. The AC50 under setting [2] was 0.411 µM [falling, full curve].
As for `COc1ccc(OC)c(NC(=S)NCCCN2CCOCC2)c1`, the cell number change came to 0.392%.
Turning to `CC1CCCC(NC(=O)COC(=O)c2cccc(NS(=O)(=O)/C=C/c3ccccc3)c2)C1C` (stereo not drawn), the cell number change came to 36.7%. The AC50 under setting [1] is 16.4 µM [rising, single point].
For `CN=C1SC(CC(=O)Nc2sc(C)c(C)c2C(=O)OC)C(=O)N1C` (stereo not drawn), the cell number change stood at 8.46%. Moreover, under setting [2], the AC50 was 0.326 µM [rising, partial curve].
As for `O=C(Nc1ccc(NC(=S)NC(=O)c2cccs2)cc1)c1ccccc1`, the cell number change was 11.3%. Under setting [2], the concentration at half-maximal activity (AC50) is 4.61 µM [rising, full curve].
With `CCOC(=O)c1c(C)[nH]c(C)c1C(=O)COC(=O)CNC(=O)c1ccc(OCC)cc1`, under setting [2], the AC50 is 0.731 µM [rising, single point].
Regarding `Cc1ccc(Nc2nc(N)nc(CN3CCCCCC3)n2)cc1`, the AC50 under setting [2] is 29.1 µM [rising, single point].
Turning to `Cc1ccc(Oc2cc(NC(=O)CCCn3nc(C)c([N+](=O)[O-])c3C)cc([N+](=O)[O-])c2)cc1`, the cell number change was determined as 34.5%. In addition, the AC50 under setting [1] is 2.06 µM [rising, full curve, poor fit].
Take `CCOc1ccccc1C1CC(c2cccc(NS(C)(=O)=O)c2)=NN1C(=O)c1ccccc1` (stereo not drawn): the AC50 under setting [2] is 20.6 µM [rising, single point].
For the molecule `Cn1c(CCNC(=O)c2ccco2)nc2cc(NS(=O)(=O)c3ccccc3)ccc21`, the cell number change turned out to be 16.2%.
For the molecule `O=C(c1ccccc1)N1CCN(C(=O)C23CC4CC(CC(C4)C2)C3)CC1`, the cell number change was -3.87%. For the same molecule, under setting [2], the AC50 is 5.8 µM [falling, single point].
For the molecule `O=C(CCNS(=O)(=O)c1cccc(Cl)c1)OCC(=O)N1CCN(C(=O)c2ccco2)CC1`, the cell number change is 3.08%. Moreover, the AC50 under setting [2] was 29.1 µM [rising, partial curve, poor fit].
As to `O=C(CC1OC(=O)c2ccccc21)NNC(=O)c1ccc(F)cc1` (stereo not drawn), the cell number change was 4.4%. Under setting [2], the AC50 was 0.146 µM [falling, partial curve, poor fit].
Take `CCC(Sc1nc2cc(OC)c(OC)cc2c(=O)n1Cc1ccco1)C(=O)NCCOC` (stereo not drawn): the cell number change was 27.5%. Besides, the AC50 under setting [2] is 0.164 µM [rising, full curve, poor fit].
For `O=C1c2ccccc2NC(c2cccc(Cl)c2)N1N=C1CCCCCC1` (stereo not drawn), the cell number change amounted to 3.31%. Further, the AC50 under setting [2] is 0.58 µM [falling, full curve, poor fit].
In the case of `C=CCOC(=O)CN1C(=O)c2ccccc2C1=O`, the cell number change was -1.9%. Further, the AC50 under setting [2] is 0.116 µM [falling, single point].
In the case of `O=C(Nc1ccc(Cl)cc1C(=O)N1CCOCC1)c1ccco1`, the cell number change was -11.6%. Under setting [1], the AC50 was 2.59 µM [falling, partial curve, poor fit]. For the same molecule, under setting [2], the AC50 is 6.51 µM [falling, single point].
`OC(COCC(F)(F)C(F)(F)C(F)(F)C(F)F)Cn1c2ccc(Cl)cc2c2cc(Cl)ccc21` (stereo not drawn): the cell number change is -67.9%. Further, the AC50 under setting [1] is 20.6 µM [falling, partial curve].
Take `Clc1ccc(NC2(c3nnnn3C3CCCCC3)CCCCC2)cc1`: the cell number change was 12.2%. Moreover, under setting [2], the AC50 is 8.2 µM [rising, partial curve].
For the molecule `CCOCCCNC(=O)c1cn(CC)c2ccc(S(=O)(=O)N(C)C3CCCCC3)cc2c1=O`, the cell number change was determined as 19.1%. Also, under setting [2], the AC50 is 3.66 µM [falling, single point].
In the case of `CC1=Nn2c(nnc2-c2ccco2)SC1`, the cell number change stood at 21.7%. For the same molecule, under setting [2], the AC50 is 1.84 µM [rising, full curve, poor fit].
Regarding `CC(C)c1c(C(=O)N/N=C/c2ccc(OCc3ccccc3)cc2)nnn1-c1nonc1N`, the cell number change stood at 53.2%. The AC50 under setting [1] is 29.1 µM [rising, single point]. The AC50 under setting [2] is 29.1 µM [rising, single point].
For `COc1cc(C(=S)N2CCOCC2)ccc1OC(=O)c1ccc(Br)cc1`, the cell number change was -69.6%. In addition, under setting [1], the AC50 is 23.1 µM [falling, partial curve].
On to `Cc1ccccc1OCC(=O)Nc1cc(S(=O)(=O)N2CCOCC2)ccc1N1CCCC1`, for which the cell number change came out at 30.2%. In addition, the AC50 under setting [1] is 29.1 µM [rising, single point]. Moreover, the AC50 under setting [2] was 6.51 µM [rising, single point].
Consider `CCOC(=O)c1c(NC(=O)C[n+]2ccc(N(C)C)cc2)sc(C)c1C`, for which the cell number change came to 6.06%. In addition, the AC50 under setting [2] was 6.51 µM [rising, partial curve, poor fit].
With `O=C1S/C(=C/c2ccccc2)C(=O)N1CC(O)Cn1c2ccccc2c2ccccc21` (stereo not drawn), the AC50 under setting [2] was 29.1 µM [falling, single point].
For `Cc1ccc2c(C)ccc(O)c2n1`, the cell number change was 0.582%. In addition, under setting [2], the AC50 is 1.64 µM [falling, full curve].
In the case of `Cc1ccc(NC(=O)C2CCN(C(=O)N3CCOc4ccccc43)CC2)cc1`, the cell number change worked out at 3.46%. Besides, under setting [2], the AC50 is 29.1 µM [rising, single point].
Regarding `COc1ccc(S(=O)(=O)N2CCOCC2)cc1NC(=O)Cc1ccccc1Cl`, the cell number change worked out at 9.99%. Also, the AC50 under setting [2] is 4.11 µM [rising, single point].
For `Cc1cc(C(=O)N/N=C/c2ccc(O)c(O)c2O)c(C)n1-c1ccccc1`, the cell number change worked out at 2.9%. The AC50 under setting [2] was 0.651 µM [falling, single point].
As for `O=C(CSc1nccn(-c2ccc(F)c(F)c2)c1=O)NC1CCCC1`, the cell number change was 30.2%. Also, the AC50 under setting [1] was 16.4 µM [rising, partial curve, poor fit]. Under setting [2], the AC50 was 14.6 µM [rising, partial curve].
As to `Cc1ccnc(SCC(=O)c2cc3ccccc3o2)n1`, the cell number change came out at 0.683%. In addition, the AC50 under setting [2] was 0.461 µM [falling, single point].
In the case of `O=C(NCCc1ccccc1)c1ccc(Cl)c(S(=O)(=O)N2CCOCC2)c1`, the cell number change was -22.9%. Moreover, the AC50 under setting [2] is 7.31 µM [rising, single point].
In the case of `O=C(CSc1ncc(-c2ccccc2)n1CC1CCCO1)N1CCCCC1` (stereo not drawn), the cell number change is -93.6%. Besides, the AC50 under setting [1] was 29.1 µM [falling, single point].
Regarding `CC(C)CCNC(=O)NC(=O)CSc1nnc(-c2ccccc2Br)o1`, the cell number change was 33%. The AC50 under setting [2] was 0.58 µM [rising, single point].
Consider `Cc1cnc(C(=O)OCC(=O)Nc2cc(-c3ccccc3)nn2-c2ccccc2)cn1`, for which the AC50 under setting [2] is 29.1 µM [rising, single point].
On to `Cc1ccc(-c2csc(NC(=O)CSc3nc4ccccc4[nH]3)n2)cc1`, for which the cell number change was -48%. Further, under setting [1], the AC50 is 16.4 µM [falling, single point]. For the same molecule, the AC50 under setting [2] is 23.1 µM [falling, single point].
As for `O=C1NC(=S)S/C1=C\C=C\c1ccc([N+](=O)[O-])o1`, the AC50 under setting [2] was 5.8 µM [falling, partial curve].
In the case of `COC(=O)c1ccccc1NC(=O)c1noc2c1CC(C(C)(C)C)CC2` (stereo not drawn), the concentration at half-maximal activity (AC50) under setting [2] was 0.58 µM [rising, single point].
On to `O=C(c1cc(COc2ccc3ncccc3c2)on1)N1CCCC(O)C1` (stereo not drawn), for which the cell number change was -21.1%. Under setting [2], the AC50 is 20.6 µM [falling, single point].
